{"source": "PubChem BioAssay AID1053208 | Peter MacCallum Cancer Centre – 2014", "test": "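Synthetic lethal interactions between gene loss and doxorubicin in osteosarcoma cells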 (primary screen)", "cell system": "mouse osteosarcoma cells, early-passage culture from an engineered mouse model of fibroblastic bone tumour", "reagents": "siRNA pool against mouse genes, 40 nM", "timing": "about 120 h (48 h before drug, then 72 h with drug)", "challenge": "doxorubicin 100 nM for 72 h, roughly 30-40% inhibitory dose", "read-out": "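Viability read as ATP luminescence after 72 h of 100 nM doxorubicin or none, duplicate wells averaged, scaled to non-targeting siRNA, then expressed as robust z-scores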", "scale": "viability z-score with doxorubicin: higher = more viable cells under doxorubicin; viability z-score without drug: higher = more viable cells with knock-down alone", "rule for the call": "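Called active if knock-down leaves viability unchanged without drug (z within -2 to 2) but lowers it with doxorubicin (z at or under -2)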", "note": "Here is an unselected part of about 17,000 reagents tested. In the full data, 788 (4.7%) were called active. 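Calls rest on z-score classes alone; an extra cut-off of viability at most 70% of control was not applied to them.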 Further read-outs or replicates are left out here."}
{"Target gene": "Cdh4", "combined z-score class": "no change with or without drug", "viability z-score with doxorubicin": -1.91, "viability z-score without drug": -0.84, "Outcome": "inactive"}
{"Target gene": "Fam221b", "combined z-score class": "no change with or without drug", "viability z-score with doxorubicin": -1.8, "viability z-score without drug": 1.52, "Outcome": "inactive"}
{"Target gene": "Or52n3", "combined z-score class": "no change with or without drug", "viability z-score with doxorubicin": -0.79, "viability z-score without drug": -1.18, "Outcome": "inactive"}
{"Target gene": "Stard3", "combined z-score class": "no change with or without drug", "viability z-score with doxorubicin": 1.12, "viability z-score without drug": -1.01, "Outcome": "inactive"}
{"Target gene": "Sdhc", "combined z-score class": "no change with or without drug", "viability z-score with doxorubicin": -0.56, "viability z-score without drug": 0.17, "Outcome": "inactive"}
{"Target gene": "Nol7", "combined z-score class": "low cell count without drug only", "viability z-score with doxorubicin": -0.67, "viability z-score without drug": -2.36, "Outcome": "inactive"}
{"Target gene": "Tox4", "combined z-score class": "no change with or without drug", "viability z-score with doxorubicin": -0.79, "viability z-score without drug": 0.34, "Outcome": "inactive"}
{"Target gene": "Xrcc1", "combined z-score class": "no change with or without drug", "viability z-score with doxorubicin": -1.12, "viability z-score without drug": -0.17, "Outcome": "inactive"}
{"Target gene": "Tbc1d25", "combined z-score class": "no change with or without drug", "viability z-score with doxorubicin": 1.24, "viability z-score without drug": -1.18, "Outcome": "inactive"}
{"Target gene": "Hacd3", "combined z-score class": "no change with or without drug", "viability z-score with doxorubicin": -0.79, "viability z-score without drug": 0.67, "Outcome": "inactive"}
{"Target gene": "St6galnac1", "combined z-score class": "no change with or without drug", "viability z-score with doxorubicin": -0.67, "viability z-score without drug": -1.01, "Outcome": "inactive"}
{"Target gene": "Samd11", "combined z-score class": "no change with or without drug", "viability z-score with doxorubicin": -1.57, "viability z-score without drug": -0.51, "Outcome": "inactive"}
{"Target gene": "Grap", "combined z-score class": "no change with or without drug", "viability z-score with doxorubicin": 0, "viability z-score without drug": -1.85, "Outcome": "inactive"}
{"Target gene": "Hoxb4", "combined z-score class": "no change with or without drug", "viability z-score with doxorubicin": 0.11, "viability z-score without drug": 1.52, "Outcome": "inactive"}
{"Target gene": "Cyrib", "combined z-score class": "high cell count with and without drug", "viability z-score with doxorubicin": 2.47, "viability z-score without drug": 2.87, "Outcome": "inactive"}
{"Target gene": "Ushbp1", "combined z-score class": "no change with or without drug", "viability z-score with doxorubicin": -1.12, "viability z-score without drug": -0.67, "Outcome": "inactive"}
{"Target gene": "Ulk1", "combined z-score class": "no change with or without drug", "viability z-score with doxorubicin": -0.79, "viability z-score without drug": 0.84, "Outcome": "inactive"}
{"Target gene": "Lamp2", "combined z-score class": "no change with or without drug", "viability z-score with doxorubicin": 0.56, "viability z-score without drug": -0.84, "Outcome": "inactive"}

Continued (4 carried over from the part before).
{"Target gene": "Cyrib", "combined z-score class": "high cell count with and without drug", "viability z-score with doxorubicin": 2.47, "viability z-score without drug": 2.87, "Outcome": "inactive"}
{"Target gene": "Ushbp1", "combined z-score class": "no change with or without drug", "viability z-score with doxorubicin": -1.12, "viability z-score without drug": -0.67, "Outcome": "inactive"}
{"Target gene": "Ulk1", "combined z-score class": "no change with or without drug", "viability z-score with doxorubicin": -0.79, "viability z-score without drug": 0.84, "Outcome": "inactive"}
{"Target gene": "Lamp2", "combined z-score class": "no change with or without drug", "viability z-score with doxorubicin": 0.56, "viability z-score without drug": -0.84, "Outcome": "inactive"}
{"Target gene": "Aimp2", "combined z-score class": "no change with or without drug", "viability z-score with doxorubicin": 0.45, "viability z-score without drug": 1.69, "Outcome": "inactive"}
{"Target gene": "Ppp1r13b", "combined z-score class": "no change with or without drug", "viability z-score with doxorubicin": 1.12, "viability z-score without drug": -0.51, "Outcome": "inactive"}
{"Target gene": "Hcar1", "combined z-score class": "no change with or without drug", "viability z-score with doxorubicin": -1.8, "viability z-score without drug": -0.51, "Outcome": "inactive"}
{"Target gene": "Lcorl", "combined z-score class": "no change with or without drug", "viability z-score with doxorubicin": 1.35, "viability z-score without drug": -0.51, "Outcome": "inactive"}
{"Target gene": "Dkk1", "combined z-score class": "no change with or without drug", "viability z-score with doxorubicin": 0.9, "viability z-score without drug": 0.84, "Outcome": "inactive"}
{"Target gene": "Tbata", "combined z-score class": "no change with or without drug", "viability z-score with doxorubicin": -1.12, "viability z-score without drug": 0.67, "Outcome": "inactive"}
{"Target gene": "Mboat7", "combined z-score class": "no change with or without drug", "viability z-score with doxorubicin": 0.56, "viability z-score without drug": 0.34, "Outcome": "inactive"}
{"Target gene": "Kif13b", "combined z-score class": "no change with or without drug", "viability z-score with doxorubicin": 0.67, "viability z-score without drug": -0.17, "Outcome": "inactive"}
{"Target gene": "Map7d1", "combined z-score class": "no change with or without drug", "viability z-score with doxorubicin": 0.22, "viability z-score without drug": 0, "Outcome": "inactive"}
{"Target gene": "Tmem9", "combined z-score class": "no change with or without drug", "viability z-score with doxorubicin": 1.46, "viability z-score without drug": 1.52, "Outcome": "inactive"}
